Results on 4 molecules are retold here after patent US20170348438A1 (CASE WESTERN RESERVE UNIVERSITY, published 2017).

Amino acid sequences for entries named in this document (tags omitted).
UniProt P06702: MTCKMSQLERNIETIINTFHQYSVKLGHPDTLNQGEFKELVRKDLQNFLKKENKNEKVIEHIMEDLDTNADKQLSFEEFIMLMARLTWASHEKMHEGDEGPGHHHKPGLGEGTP

Results are given in words; binding and its absence hold for the method and conditions named. Some results given as binding are weak or reduced against the parent protein; the word gives no strength.

In this test the target is His-tagged MRP-14 (UniProt P06702). The experiment in a line: SPR, His-tagged MRP-14 on Ni-NTA chip.
In the case of ACPTGLHHACGGGS (C-terminal amidation; called cyclic) [MTP9 synthetic peptide …], the binding result is “binds”.
Consider ACNSHRHGACGGGS (C-terminal amidation; called cyclic) [MTP5 synthetic peptide …], for which the binding entry is recorded as “binds”.
Regarding HNHMADPGGGS (C-terminal amidation) [MTP3 synthetic peptide …], the binding result was “binds”.
As for ASSHIHHGGGS (C-terminal amidation) [MTP2 synthetic peptide …], the binding result is “binds”.
